Laboratory results taken from PubChem BioAssay AID1347426 (Functional Genomics Laboratory (NCATS/FGL), 2020).
In all, about 31,000 sequences went through this assay and about 1,400 (4.5%) were called active.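 Rule for the calls: active = median seed-adjusted z-score above 1 or below -1; inactive = the rest.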 Some of the results follow.

Assay: Novel Modifiers of Survival Motor Neuron (SMN) Protein: Gene Identification via Genome-wide siRNA Screen;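 note: luminescence tracks full-length SMN protein made from the SMN2 reporter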
Conditions: HEK293T SMN2-luciferase reporter, siRNA knockdown, 72 h; actives lie on both sides
Summary of the method: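 Each of three siRNAs per gene is reverse-transfected (1 pmol) into reporter HEK293T cells whose luciferase output tracks SMN protein level. After 72 h culture, ONE-Glo luminescence is control-normalized, log10-transformed and MAD-standardized; Common Seed Analysis deprioritizes seed-driven hits.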

Row | Sequence | median seed-adjusted z-score
1 | CGUGUUAUGAAACCAUUAATT against GDI2 | inactive: -0.161
2 | UGAUGACGCCUAUCAAUGATT against ADD2 | inactive: -0.176
3 | UAAUAAUUCUCACUCCUAATT against FZD5 | inactive: -0.129
4 | GGAUGGUAGUUUUGAGUCATT against CCNA2 | inactive: 0.136
5 | GGGCUGUACCUGAUAGUCUTT against ALPK2 | inactive: -0.154
6 | GGACAACAGGGAACAGGAATT against INHBC | inactive: -0.66
7 | CGAGCAAUAUUGGAGUCAATT against GK5 | inactive: -0.118
8 | ACUUAAUGCCUGCCUAUUATT against CYP21A2 | inactive: -0.26
9 | GCUACACUAUUGACUCCAATT against SLC26A10 | inactive: -0.169
10 | CAGCAAUGCGAAUAACUAATT against TRIM38 | inactive: -0.375
11 | CCAAUAUCAUGGAAGUUAATT against PFKFB3 | inactive: -0.133
12 | CAACAACCCUUAUCGUAAATT against POLQ | inactive: 0.203
13 | GCCUGACAAGUACUCCUUATT against PGK1 | inactive: -0.0196
14 | CAGGCAUAGUCUUAACCUUTT against DDX56 | inactive: 0.904
15 | UGUUCUCCAUGUUCGAACATT against MYL2 | inactive: -0.0369
16 | GGGAGUACCUGGACUACGATT against NOC4L | inactive: -0.315
17 | CCUCGGACCAGUUACAACATT against BDP1 | inactive: -0.0359
18 | GCUGUUCAACGUCUACCCATT against CYP2W1 | inactive: -0.0986
19 | CUCUGACCCAUAUAUCAAATT against SYT4 | inactive: -0.354
20 | GCGUUUCGAUCUGAGGAAATT against PRKAB2 | inactive: 0.17
21 | GAAACACCAACUUACGUUATT against DLG1 | inactive: 0.0642
22 | CCUCUACCAUUGCAACUGATT against SLC22A7 | inactive: -0.387
23 | GGAAGACGAUAGUGACAAATT against MYT1L | inactive: -0.43

Row | Sequence | median seed-adjusted z-score
24 | GAUCUGGUUCAACAACAAATT against ABCA7 | inactive: -0.711
25 | UCAUGGUCUUGCUCCGUUATT against CCBP2 | inactive: -0.0896
26 | UGGGAAUGGUAGAAACAAATT against PPIL1 | inactive: 0.166
27 | CCAUGGACAACAACAGUAATT against FOXO1 | inactive: 0.0591
28 | GCCUUGUAGCAGUGAGUGATT against PRMT3 | inactive: 0.00875
29 | GCACGUCGAGCAAUCCAAATT against MYOD1 | inactive: 0.309
30 | AGAUUAUGUUCCUGCUGUATT against NMB | inactive: 0.746
31 | CGAGGAGUUUGAGUAUCGATT against CKS1B | inactive: 0.00314
32 | GGAUGCUAUGAAUAAGUUUTT against MOXD1 | inactive: -0.162
33 | CCCGGAAUGUGCAGCACUATT against PGLYRP1 | inactive: -0.559
34 | AGAUAACUGGAAAAUGUCUTT against SLC22A18AS | inactive: 0.0382
35 | AGAGGCUUAUUUGACUUUATT against DCN | inactive: 0.326
36 | GGUGAUGAGAGAUCCCAAUTT against PABPC4 | inactive: -0.42
37 | GAGAAUACCUGUUUAGUGUTT against COX7A2L | inactive: 0
38 | CCAUUUCGACUGACACGUUTT against MCHR2 | inactive: -0.658
39 | GGCUAGAUGCGGACAUUCATT against EEFSEC | inactive: -0.000421
40 | AGCGGAACCUGAAUCCCAATT against TCF3 | inactive: -0.0126
41 | GAAAAUCAGUCAACAAGAUTT against NMUR2 | inactive: 0.529
42 | CUUGUAGAGUCGCACCUUATT against SHOX2 | inactive: -0.238
43 | GCACUGUAGCUGAUCUAUUTT against CYP2C8 | inactive: 0.371
44 | CGAGCACCCUUACAAGUCUTT against RYR1 | inactive: -0.474
45 | CCCACAUUCUUGUCCGGCATT against ADAMTS4 | inactive: -0.0153
46 | CAGAUACACUGACUACGAUTT against PPARGC1B | inactive: -0.366

A second format for part of the listing above:
Row,Sequence,median seed-adjusted z-score
6,GGACAACAGGGAACAGGAATT against INHBC,inactive: -0.66
7,CGAGCAAUAUUGGAGUCAATT against GK5,inactive: -0.118
8,ACUUAAUGCCUGCCUAUUATT against CYP21A2,inactive: -0.26
9,GCUACACUAUUGACUCCAATT against SLC26A10,inactive: -0.169
10,CAGCAAUGCGAAUAACUAATT against TRIM38,inactive: -0.375
11,CCAAUAUCAUGGAAGUUAATT against PFKFB3,inactive: -0.133
12,CAACAACCCUUAUCGUAAATT against POLQ,inactive: 0.203
13,GCCUGACAAGUACUCCUUATT against PGK1,inactive: -0.0196
14,CAGGCAUAGUCUUAACCUUTT against DDX56,inactive: 0.904
15,UGUUCUCCAUGUUCGAACATT against MYL2,inactive: -0.0369
16,GGGAGUACCUGGACUACGATT against NOC4L,inactive: -0.315
17,CCUCGGACCAGUUACAACATT against BDP1,inactive: -0.0359
18,GCUGUUCAACGUCUACCCATT against CYP2W1,inactive: -0.0986
19,CUCUGACCCAUAUAUCAAATT against SYT4,inactive: -0.354
20,GCGUUUCGAUCUGAGGAAATT against PRKAB2,inactive: 0.17
21,GAAACACCAACUUACGUUATT against DLG1,inactive: 0.0642
22,CCUCUACCAUUGCAACUGATT against SLC22A7,inactive: -0.387
23,GGAAGACGAUAGUGACAAATT against MYT1L,inactive: -0.43
24,GAUCUGGUUCAACAACAAATT against ABCA7,inactive: -0.711
25,UCAUGGUCUUGCUCCGUUATT against CCBP2,inactive: -0.0896

Going on with the list.

Row | Sequence | median seed-adjusted z-score
47 | GACAGAUGACUGAUCCUAATT against PSMD13 | inactive: 0.58
48 | GCUCCGAUCCUUCCAUGUATT against HIRA | inactive: 0.286
49 | GCGAUUUAAUAUUAAGGAATT against CHD2 | inactive: 0.422
50 | AGUCCGAAGAUGUCCCAUATT against ATP6AP1 | inactive: 0.358
51 | CAACAGAUCCUCACCAGUATT against LEP | inactive: -0.143
52 | GCCUAUUUACAACAGCUAATT against ARPC3 | inactive: -0.237
53 | CAAGGUGCAUUACCCGAAATT against CES7 | inactive: -0.374
54 | ACAUCGUUAUUUUCUAUUATT against FOXD4L1 | inactive: 0.271
55 | CCAGAAUAUCUAUAUUCAATT against PKP2 | inactive: -0.0809
56 | UGUGGAUCUGCUUACCAAATT against ZFAND2B | inactive: 0
57 | GAAUCUAUGAGGAAUAUGATT against PTPN9 | inactive: 0.148
58 | GAGAUGAACCGGAACAUCATT against LOC650864 | inactive: 0.214
59 | GCCUUCAGCUGUCAGCUUUTT against RBCK1 | inactive: 0.479
60 | GGCUGCCGAGUAUACCAUUTT against STK40 | inactive: -0.555
61 | CAUAACCACUUUAAAGUCATT against GAB1 | inactive: 0.373
62 | GUUGAUAGCUGGUAAUGAATT against EIF2S3 | inactive: -0.0572
63 | GGAGCUCCUUUGUGAGUUUTT against PROCR | inactive: -0.476
64 | GGAGUAUAAUGACAUAUGATT against DGKH | inactive: 0.13
65 | GAGCACAUCCGAGAAUUAATT against ANXA11 | inactive: 0.21
66 | GCAUCGUUCCAGACGGUGUTT against MYH7B | inactive: -0.0322
67 | GGCCUAAGGAAUCACCGAATT against ZNF782 | inactive: 0.117
68 | GCAUCAACGCGGGAUUCCATT against TFAP4 | inactive: -0.0515
